Measurements: PubChem BioAssay AID493014 (National Center for Advancing Translational Sciences (NCATS), 2011)
The campaign covered roughly 340,000 compounds. About 170 (0.05%) were called active. The shares of active, inactive and inconclusive entries below differ from those in the screen. The call rests on the fitted dose curve; in most records, active means well fitted inhibition curve with a large enough effect in the signal ratio, with a control signal flat (not every such curve was filed as active); inconclusive means small, poorly fitted or top-dose-only effect, or effect the other way, or a change in a side signal; inactive means flat fitted curve, though single readings scatter; the % refers to the signal ratio. Potencies beside an inconclusive call are fits to weak or partial responses and may not hold up.

assay: qHTS Assay to Find Inhibitors of Chronic Active B-Cell Receptor Signaling; conditions: ABC-DLBCL IkBa-CBG/CBR reporter, luminescence ratio (green luciferase fused to IkBa over red control in TMD8 lymphoma cells), 4 h; activity change, negative = inhibition: at 46.1 µM (top of the series);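 on activity change, negative = inhibition: plate controls were basal doxycycline-induced cells for no effect and cells given 10 µM MG132 for full effect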
Method in brief: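 TMD8 human ABC-DLBCL cells with doxycycline-inducible IκBα–green luciferase fusion and unfused red luciferase, in 0.5% FBS medium; compounds up to 46 uM, 4 h at 37C. Green/red luminescence ratio, filter-overlap corrected, fitted to concentration-response curves.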
Potency means the concentration at half of the fitted maximal effect.

SMILES | activity change, negative = inhibition | Potency
CCNC(=O)c1cc2c(=O)n3cccc(C)c3nc2n(Cc2ccc(C)cc2)c1=N | inconclusive: -1.74% | –
NC(=O)CNCCC(c1ccccc1)c1ccccc1 | – | inconclusive: 3.66 µM [falling, partial curve, poor fit]
CC1CC1C(=O)Nc1ccc(-c2ccccc2)cc1 (configuration not stated) | – | inconclusive: 29.1 µM [falling, single point]
O=C(Nc1nnc(SCc2cccc(F)c2)s1)c1ccco1 | inconclusive: 17.1% | –
Cc1cnc(C(=O)Nc2ccc3c(c2)CCC3)cn1 | inconclusive: 3.94% | –
CCCn1cc(S(=O)(=O)c2ccc(Cl)cc2)c(=O)c2cc(OC)ccc21 | inactive | –
CC(=O)c1cccc(NC(=O)CSc2nnc(C(C)N(C)C)n2Cc2ccccc2)c1 (configuration not stated) | inactive | –
CNC(=O)c1[nH]cnc1C(=O)Nc1ccc(Cl)cc1 | inactive | –
O=S(=O)(/N=S1/CC=CCN1S(=O)(=O)c1ccccc1)c1ccccc1 (configuration not stated) | inconclusive: 3.93% | –
CC(=O)c1ccc(NCCC(=O)c2ccccc2)cc1 | inactive | –
COCCN1C(=S)NC(c2cccc(C(F)(F)F)c2)C(C(=O)N2CCOCC2)=C1C (configuration not stated) | inactive | –
CC1=CC(=O)C=C(C)C1=NOc1ccccc1[N+](=O)[O-] | – | inconclusive: 23.1 µM [falling, single point]
Cc1[nH]nc(SCC(=O)NC2CCCCC2)c1[N+](=O)[O-] | – | inconclusive: 22.4 µM [falling, partial curve]
C=CCNC(=O)c1ccccc1NC(=O)c1ccc(Cl)c(S(=O)(=O)Nc2cccc(C)c2C)c1 | – | inconclusive: 6.51 µM [falling, single point]
COc1ccc(NC(=O)COC(=O)c2c3c(nc4ccccc24)CCCC3)cc1 | inconclusive: -3.97% | –
Cc1ccc2c(c1)c1c(n2CC(O)Cn2nc(C)c(Br)c2C)C(=O)CCC1 (configuration not stated) | inconclusive: 2.36% | –
CS(=O)(=O)N1CCN(c2cnn(-c3ccccc3)c(=O)c2Cl)CC1 | – | inconclusive: 5.62 µM [falling, full curve]
CCOC(=O)c1c(NC(=O)CSc2nnc(CNc3ccc(F)cc3)o2)sc(C)c1C | inconclusive: -2.78% | –
CC(=O)/C=C/c1ccc2ccccc2n1 | inconclusive: -1.93% | –
Cc1c(CC(Cl)(Cl)Cl)c2c(n1O)CC(C)(C)CC2=O | inconclusive: -12.2% | –
O=C(Nc1ccc(Nc2ccccc2)cc1)C(Cl)Cl | inconclusive: 0.981% | –

SMILES | activity change, negative = inhibition | Potency
CCOc1cc(/C=C2\SC(=S)N(NS(=O)(=O)c3ccccc3)C2=O)ccc1O | inactive | –
COc1ccc(N2CCN(C(=O)NCc3ccc(OC)c(OC)c3)CC2)cc1 | inactive | –
CCOC(=O)Cn1nnc(-c2ccc(SC)cc2)n1 | inconclusive: 17.3% | –
COc1ccc(OC)c(N=C2C(=O)Nc3ccccc32)c1 | inactive | –
CSc1ccccc1NC(=O)c1cc(-c2ccco2)on1 | – | inconclusive: 22.4 µM [falling, partial curve]
CCOC(=O)c1c(C)[nH]c(N=Nc2ccc(C)cc2)c1C | – | inconclusive: 10.3 µM [rising, partial curve, poor fit]
COc1cccc(/C=N/n2c(CO)nc3ccccc32)c1OC | inactive | –
Cc1ccc(SC(c2ccccc2)C(Cn2cncn2)C(=O)c2ccccc2)cc1 (configuration not stated) | – | inconclusive: 25.9 µM [rising, single point]
Cc1ccc(CNC(=O)c2cccc(-n3cnnn3)c2)cc1 | inconclusive: 18.8% | –
C#CCOC(=O)c1ccc(-n2cncn2)nc1 | inconclusive: -25.5% | –
Cc1nc2c3cc(F)ccc3n(CCN3CCCCC3)c2s1 | – | inconclusive: 25.1 µM [falling, single point]
O=c1[nH]nc(Cc2ccc([N+](=O)[O-])cc2)c2ccccc12 | inactive | –
CCOC(=O)C1(CCOc2ccccc2)CCN(Cc2ccc(OC)c(COC)c2)CC1 | inactive | –
Cn1c(=O)c2c(nc(N3CCOCC3)n2CCCNC2=NCCCCC2)n(C)c1=O | inconclusive: 0.569% | –
Cc1cccc(OCC(=O)NC(=S)Nc2ccccc2N2CCOCC2)c1C | inconclusive: -2.56% | –
O=C(NCCC1=CCCCC1)c1ccc(-n2cncn2)cc1 | inconclusive: 4.76% | –
Cc1ccc(-n2nnnc2C(Cl)c2nnnn2-c2ccc(C)cc2)cc1 | inconclusive: -20% | –
COc1ccc(N2CCN(C(=O)COCc3cc(-c4ccc5c(c4)OCO5)on3)CC2)cc1 | inconclusive: -5.94% | –
O=C1C(Cl)=C(NCC2CCCO2)C(=O)N1C1CCCCC1 (configuration not stated) | inconclusive: -26.4% | –
O=C(NCC1([N+](=O)[O-])CN(C(=O)c2ccccc2)CN(C(=O)c2ccccc2)C1)c1ccccc1 | inconclusive: -0.12% | –
Cc1ccc(NC(=S)NNC(=O)c2ccco2)cc1 | – | inconclusive: 29.1 µM [falling, single point]

One compound at a time, as listed above. Values in the order: activity change, negative = inhibition	Potency
C#CCOC(=O)c1ccc(-n2cncn2)nc1 in the list: inconclusive: -25.5%	–
COc1cccc(/C=N/n2c(CO)nc3ccccc32)c1OC in the list: inactive	–
CSc1ccccc1NC(=O)c1cc(-c2ccco2)on1 in the list: –	inconclusive: 22.4 µM [falling, partial curve]
Cc1nc2c3cc(F)ccc3n(CCN3CCCCC3)c2s1 in the list: –	inconclusive: 25.1 µM [falling, single point]

(next part)

SMILES | activity change, negative = inhibition | Potency
O=C(CSc1ccc(F)cc1)Nc1ccc2c(c1)C(=O)NC2=O | inactive | –
Cc1cccc(NC(=O)CNC(=O)c2cccs2)n1 | – | inconclusive: 18.4 µM [falling, single point]
COc1ccccc1C(=O)NNC(=O)c1cccc(O)c1 | – | inconclusive: 35.5 µM [rising, single point]
O=C(NCCCN1CCCC1=O)c1cccc(Oc2ccccc2)c1 | inconclusive: -1.62% | –
COc1ccc(CNC(=O)C/C(C)=N/NC(=O)c2ccc([N+](=O)[O-])cc2Cl)cc1 | – | inconclusive: 6.31 µM [falling, full curve]
COc1ccc(S(=O)(=O)N2CCOC23CCN(S(=O)(=O)c2ccc(C)cc2)CC3)cc1 | inconclusive: -2.91% | –
Cc1c(C(=O)OCC(=O)N2CC(=O)Nc3ccccc32)oc2ccccc12 | inconclusive: 12.3% | –
COc1ccc(CNC(=O)c2cc3c(s2)CS(=O)C3)cc1 (configuration not stated) | inconclusive: 9.79% | –
CCCCCCc1cc2cc(C(=O)Nc3ccccc3)c(=O)oc2cc1O | – | inconclusive: 23.1 µM [falling, partial curve]
CCCn1c(SC(C)C(=O)NCC2CCCO2)nc2cc(Cl)ccc2c1=O (configuration not stated) | inconclusive: 15.8% | –
O=C(O)c1ccc(-c2ccc(/C=c3/sc4nc5ccccc5n4c3=O)o2)cc1Cl | inconclusive: -4.68% | –
COc1ccc(N2C(=O)CN(Cc3ccc(OC)c(OC)c3)C2=S)cc1 | – | inconclusive: 11.2 µM [falling, partial curve]
COc1cc(C(=O)O)ccc1OCc1ccncc1 | inactive | –
O=C(NNC(=S)Nc1ccc(Cl)c(Cl)c1)c1ccccn1 | – | inconclusive: 35.5 µM [cytotoxic, single point]
NS(=O)(=O)c1ccc(NC(=O)c2cccc(N3C(=O)c4ccccc4C3=O)c2)cc1 | – | inconclusive: 22.4 µM [falling, single point]
O=C1Nc2ccc(F)cc2C12Nc1ccccc1-c1nnc(SCc3ccccc3)nc1O2 (configuration not stated) | – | inconclusive: 31.6 µM [falling, partial curve]
O=C1NN(c2ccccc2)C(=O)/C1=C/c1ccc(Sc2cccc3ccccc23)o1 | inconclusive: 6.31% | –
Cn1cc(/C=C/c2cc[n+](C)cc2)c2cc(F)ccc21 | inactive | –
COCn1c(COc2ccccc2)nc2ccccc21 | inconclusive: 7.35% | –
Cc1ccc(C(=O)NNC(=O)c2ccncc2)cc1[N+](=O)[O-] | – | inconclusive: 20.6 µM [falling, single point]
Cc1csc2nc(CNC(=O)C3CCCCC3)cn12 | inconclusive: 10.5% | –

SMILES | activity change, negative = inhibition | Potency
COc1ccc(OCCOC(=O)Nc2ccccc2)cc1 | inconclusive: -0.902% | –
O=[N+]([O-])c1cc(S(=O)(=O)N2CCCC2)ccc1OCc1ccccc1 | inconclusive: -4.69% | –
COc1ccc(NC(=O)COc2ccc3c(C)cc(=O)oc3c2)cc1S(=O)(=O)N1CCCCC1 | inactive | –
CCn1c(NCc2ccc3c(c2)OCO3)nc2ccccc21 | inconclusive: -17.8% | –
O=C(NN=C1CCCC1)c1cccc(O)c1 | – | inconclusive: 12.6 µM [falling, partial curve]
O=C(O)c1nn(CCOc2ccc(Cl)cc2Cl)c(=O)c2ccccc12 | inconclusive: 16.4% | –
CC(C)CCN1CCN(Cc2ccon2)CC1CCO (configuration not stated) | – | inconclusive: 20 µM [falling, partial curve, poor fit]
O=c1ccc2c(-c3ccccc3)c3ccc(O)cc3oc-2c1 | inactive | –
O=C1N/C(=C/c2ccc(N3CCOCC3)o2)C(=O)N1c1ccccc1 | inconclusive: 15.1% [cytotoxic] | –
CCOc1ccc(-n2c(C)nc3cc(C(=O)NCc4ccc5c(c4)OCO5)ccc32)cc1 | inconclusive: -1.19% | –
CCc1cccc(CC)c1NC(=O)CN1C2CCCC1CC(NC(=O)Nc1cccc(OC)c1)C2 (configuration not stated) | inconclusive: 14.1% | –
CN(C)c1ccc(C=Nc2ccccc2C(N)=O)cc1 | inactive | –
CC[C@@]1(c2ccccc2C)C(=O)N(C(=O)OC)N1C(=O)OC | inactive | –
O=C(COC(=O)c1cc([N+](=O)[O-])ccc1N1CCOCC1)c1ccccc1 | inconclusive: -18.2% | –
O=C(/C=C/c1ccc(Cl)cc1)NC(=S)Nc1ccc(C(=O)O)cc1 | inconclusive: -13.2% | –
O=C(Nc1ccccc1Cl)c1ccc2c(=O)n3c(nc2c1)CCC3 | – | inconclusive: 18.4 µM [falling, partial curve, poor fit]
COc1cc(C(=O)NCCCN2CCCC2=O)cc(Br)c1OCc1ccccc1 | inactive | –
Cn1cnnc1SCC(=O)c1cc2ccccc2oc1=O | – | inconclusive: 25.9 µM [falling, single point]
CCC(C)c1ccc(NC(=S)Nc2ccc(OC)cc2C)cc1 (configuration not stated) | inconclusive: -18.9% | –

As a working copy, some entries already given:
SMILES | activity change, negative = inhibition | Potency
O=C(NN=C1CCCC1)c1cccc(O)c1 | – | inconclusive: 12.6 µM [falling, partial curve]
O=C(O)c1nn(CCOc2ccc(Cl)cc2Cl)c(=O)c2ccccc12 | inconclusive: 16.4% | –
